# Values quoted from earlier work in patent publication US20230414839A1, “COATED MEDICAL PRODUCT” (HEMOTEQ AG, priority 2020, published 2023).
# At least one compound was matched to its structure with a doubt left.
# Details: cited from earlier work
structure (smiles),measurement,value
"CCC(C)=O [Solution 2-Butanone, 2-Butanone]",logKOW,0.29
